# This is one part of the list.
# Chains of the proteins cited; added tags and fusions are not shown. Lines headed by an entry give the natural chain unless they say otherwise; changes in a name come on top.
# UniProt Q9Y2S6, whole entry: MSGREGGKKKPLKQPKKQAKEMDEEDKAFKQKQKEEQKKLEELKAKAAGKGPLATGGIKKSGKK
# UniProt Q6ZSJ8: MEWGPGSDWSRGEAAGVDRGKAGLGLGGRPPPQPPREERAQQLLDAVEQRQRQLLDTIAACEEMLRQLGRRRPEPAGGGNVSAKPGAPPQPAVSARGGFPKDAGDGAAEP
# UniProt P50991: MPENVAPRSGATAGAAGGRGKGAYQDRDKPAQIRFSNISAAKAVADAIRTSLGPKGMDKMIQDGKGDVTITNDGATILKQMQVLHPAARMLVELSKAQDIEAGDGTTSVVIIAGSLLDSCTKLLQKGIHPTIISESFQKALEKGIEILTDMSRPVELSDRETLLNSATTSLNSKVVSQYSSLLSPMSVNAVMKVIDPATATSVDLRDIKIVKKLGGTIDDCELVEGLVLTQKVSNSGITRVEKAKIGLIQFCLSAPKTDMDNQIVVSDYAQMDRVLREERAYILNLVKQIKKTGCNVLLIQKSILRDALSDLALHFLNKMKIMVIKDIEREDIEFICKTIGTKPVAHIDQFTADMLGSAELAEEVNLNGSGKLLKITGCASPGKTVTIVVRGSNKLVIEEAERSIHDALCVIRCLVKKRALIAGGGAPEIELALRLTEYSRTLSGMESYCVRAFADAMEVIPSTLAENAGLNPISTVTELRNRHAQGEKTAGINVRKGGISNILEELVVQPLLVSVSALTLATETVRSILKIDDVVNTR
# UniProt A6NC98: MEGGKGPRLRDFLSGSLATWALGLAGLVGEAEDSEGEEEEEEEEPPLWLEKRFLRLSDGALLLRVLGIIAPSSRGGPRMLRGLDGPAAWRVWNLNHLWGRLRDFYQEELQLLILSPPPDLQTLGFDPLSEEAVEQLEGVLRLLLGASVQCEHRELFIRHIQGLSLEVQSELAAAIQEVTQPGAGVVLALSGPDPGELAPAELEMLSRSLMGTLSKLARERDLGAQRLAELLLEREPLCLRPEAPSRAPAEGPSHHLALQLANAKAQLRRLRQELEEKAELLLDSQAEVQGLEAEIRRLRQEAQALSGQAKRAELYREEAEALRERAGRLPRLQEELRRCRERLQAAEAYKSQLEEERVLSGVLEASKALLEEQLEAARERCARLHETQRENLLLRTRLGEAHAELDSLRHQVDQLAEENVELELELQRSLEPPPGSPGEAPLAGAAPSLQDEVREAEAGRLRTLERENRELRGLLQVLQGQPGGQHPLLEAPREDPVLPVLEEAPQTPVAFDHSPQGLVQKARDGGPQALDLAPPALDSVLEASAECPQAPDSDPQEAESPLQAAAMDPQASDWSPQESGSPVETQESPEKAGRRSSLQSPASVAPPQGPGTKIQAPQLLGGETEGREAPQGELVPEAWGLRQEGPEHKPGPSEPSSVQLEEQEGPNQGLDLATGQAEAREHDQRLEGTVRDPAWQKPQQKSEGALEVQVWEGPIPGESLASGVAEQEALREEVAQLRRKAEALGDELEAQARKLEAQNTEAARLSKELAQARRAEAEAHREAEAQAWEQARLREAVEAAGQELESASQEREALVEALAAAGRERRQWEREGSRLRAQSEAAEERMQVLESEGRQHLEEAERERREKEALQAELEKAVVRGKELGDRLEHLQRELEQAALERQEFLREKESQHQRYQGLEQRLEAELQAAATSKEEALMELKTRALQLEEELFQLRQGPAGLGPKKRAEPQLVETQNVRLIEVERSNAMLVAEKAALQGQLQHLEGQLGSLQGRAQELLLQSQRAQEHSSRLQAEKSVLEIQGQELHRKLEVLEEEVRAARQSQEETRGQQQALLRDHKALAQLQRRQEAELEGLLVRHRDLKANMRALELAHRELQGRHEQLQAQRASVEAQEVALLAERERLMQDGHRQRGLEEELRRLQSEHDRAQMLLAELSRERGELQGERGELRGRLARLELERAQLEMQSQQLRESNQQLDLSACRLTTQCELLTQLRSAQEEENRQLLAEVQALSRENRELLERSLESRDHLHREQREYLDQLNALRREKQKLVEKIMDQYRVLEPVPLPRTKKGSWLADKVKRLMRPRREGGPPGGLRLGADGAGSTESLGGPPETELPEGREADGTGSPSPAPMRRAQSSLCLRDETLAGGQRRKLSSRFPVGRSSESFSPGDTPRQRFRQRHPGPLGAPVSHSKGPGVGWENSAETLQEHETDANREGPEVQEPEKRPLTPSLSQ
# UniProt P48643, whole entry: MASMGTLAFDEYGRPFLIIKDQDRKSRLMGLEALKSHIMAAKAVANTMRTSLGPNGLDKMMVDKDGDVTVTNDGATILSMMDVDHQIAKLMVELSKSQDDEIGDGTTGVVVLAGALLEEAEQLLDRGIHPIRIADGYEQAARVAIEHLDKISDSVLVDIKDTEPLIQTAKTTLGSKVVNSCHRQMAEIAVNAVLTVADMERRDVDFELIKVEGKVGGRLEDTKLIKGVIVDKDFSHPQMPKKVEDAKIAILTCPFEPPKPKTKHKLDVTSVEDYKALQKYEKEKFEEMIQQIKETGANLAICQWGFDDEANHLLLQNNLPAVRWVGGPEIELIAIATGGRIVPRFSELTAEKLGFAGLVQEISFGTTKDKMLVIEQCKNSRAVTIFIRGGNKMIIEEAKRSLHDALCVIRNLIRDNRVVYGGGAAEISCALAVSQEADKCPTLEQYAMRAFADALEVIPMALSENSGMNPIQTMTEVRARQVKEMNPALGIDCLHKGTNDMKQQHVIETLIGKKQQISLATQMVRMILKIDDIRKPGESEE
# UniProt Q9H7E9: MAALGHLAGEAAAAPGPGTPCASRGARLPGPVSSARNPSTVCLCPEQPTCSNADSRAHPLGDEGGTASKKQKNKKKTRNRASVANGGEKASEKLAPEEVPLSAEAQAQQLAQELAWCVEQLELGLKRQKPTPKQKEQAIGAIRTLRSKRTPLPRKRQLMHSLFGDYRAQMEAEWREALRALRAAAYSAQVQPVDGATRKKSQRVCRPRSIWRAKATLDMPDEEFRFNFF
# UniProt Q9P032: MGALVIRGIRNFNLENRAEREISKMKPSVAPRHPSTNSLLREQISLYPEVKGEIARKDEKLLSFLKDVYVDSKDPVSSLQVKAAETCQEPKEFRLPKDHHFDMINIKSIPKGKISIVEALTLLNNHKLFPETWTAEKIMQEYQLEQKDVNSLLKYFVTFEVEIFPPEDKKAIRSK
# UniProt O60826, whole entry: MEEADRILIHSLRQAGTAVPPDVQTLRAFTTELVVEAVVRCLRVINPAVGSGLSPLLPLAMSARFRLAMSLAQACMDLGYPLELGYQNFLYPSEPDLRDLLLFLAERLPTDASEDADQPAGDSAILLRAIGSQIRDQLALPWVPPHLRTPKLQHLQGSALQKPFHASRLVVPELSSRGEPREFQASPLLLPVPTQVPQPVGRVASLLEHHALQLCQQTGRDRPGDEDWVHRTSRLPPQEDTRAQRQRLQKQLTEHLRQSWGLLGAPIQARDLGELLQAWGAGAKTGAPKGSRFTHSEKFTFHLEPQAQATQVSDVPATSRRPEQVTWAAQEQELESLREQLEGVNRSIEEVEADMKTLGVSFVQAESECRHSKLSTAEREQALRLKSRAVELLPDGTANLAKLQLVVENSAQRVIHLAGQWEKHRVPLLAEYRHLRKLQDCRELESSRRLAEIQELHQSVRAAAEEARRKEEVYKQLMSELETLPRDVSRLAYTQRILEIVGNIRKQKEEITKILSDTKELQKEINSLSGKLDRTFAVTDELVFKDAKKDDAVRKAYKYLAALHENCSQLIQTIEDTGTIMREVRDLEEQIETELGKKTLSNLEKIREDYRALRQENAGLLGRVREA
# UniProt O14936: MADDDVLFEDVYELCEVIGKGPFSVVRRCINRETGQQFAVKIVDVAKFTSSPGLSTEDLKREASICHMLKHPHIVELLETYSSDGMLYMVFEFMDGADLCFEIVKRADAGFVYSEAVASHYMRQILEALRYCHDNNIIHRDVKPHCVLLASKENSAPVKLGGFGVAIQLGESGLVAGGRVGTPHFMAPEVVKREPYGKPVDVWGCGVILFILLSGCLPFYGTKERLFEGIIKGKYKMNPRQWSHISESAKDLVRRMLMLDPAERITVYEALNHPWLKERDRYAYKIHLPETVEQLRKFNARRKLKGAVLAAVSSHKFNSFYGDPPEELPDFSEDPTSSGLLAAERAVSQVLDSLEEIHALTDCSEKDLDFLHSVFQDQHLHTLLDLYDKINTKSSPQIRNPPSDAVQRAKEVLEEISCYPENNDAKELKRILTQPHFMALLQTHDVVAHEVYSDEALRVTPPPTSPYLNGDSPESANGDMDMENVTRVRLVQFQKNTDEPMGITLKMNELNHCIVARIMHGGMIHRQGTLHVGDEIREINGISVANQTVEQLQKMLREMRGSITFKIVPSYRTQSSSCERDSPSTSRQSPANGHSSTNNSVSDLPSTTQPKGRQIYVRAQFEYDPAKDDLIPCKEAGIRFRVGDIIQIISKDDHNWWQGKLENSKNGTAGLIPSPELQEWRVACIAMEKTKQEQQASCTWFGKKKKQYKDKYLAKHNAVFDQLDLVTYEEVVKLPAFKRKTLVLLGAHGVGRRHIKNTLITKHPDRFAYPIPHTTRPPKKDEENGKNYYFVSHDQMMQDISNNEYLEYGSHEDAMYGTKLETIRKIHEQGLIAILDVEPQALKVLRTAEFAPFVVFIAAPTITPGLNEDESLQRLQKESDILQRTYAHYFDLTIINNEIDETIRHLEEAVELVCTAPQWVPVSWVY
# UniProt P40227, whole entry: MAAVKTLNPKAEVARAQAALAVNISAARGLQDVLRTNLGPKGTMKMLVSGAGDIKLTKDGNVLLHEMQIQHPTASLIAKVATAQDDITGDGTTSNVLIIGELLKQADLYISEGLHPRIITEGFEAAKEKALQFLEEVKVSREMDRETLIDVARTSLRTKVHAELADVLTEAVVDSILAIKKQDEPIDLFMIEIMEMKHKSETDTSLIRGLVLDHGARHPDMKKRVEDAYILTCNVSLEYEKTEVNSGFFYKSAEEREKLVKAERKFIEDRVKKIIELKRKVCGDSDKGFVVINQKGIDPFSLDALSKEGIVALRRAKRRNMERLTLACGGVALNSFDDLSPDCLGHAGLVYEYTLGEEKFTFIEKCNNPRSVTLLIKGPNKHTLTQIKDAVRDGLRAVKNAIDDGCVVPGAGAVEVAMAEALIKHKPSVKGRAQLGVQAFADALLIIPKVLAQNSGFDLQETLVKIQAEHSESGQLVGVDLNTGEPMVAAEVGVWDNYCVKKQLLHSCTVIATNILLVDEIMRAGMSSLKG
# UniProt Q3YEC7: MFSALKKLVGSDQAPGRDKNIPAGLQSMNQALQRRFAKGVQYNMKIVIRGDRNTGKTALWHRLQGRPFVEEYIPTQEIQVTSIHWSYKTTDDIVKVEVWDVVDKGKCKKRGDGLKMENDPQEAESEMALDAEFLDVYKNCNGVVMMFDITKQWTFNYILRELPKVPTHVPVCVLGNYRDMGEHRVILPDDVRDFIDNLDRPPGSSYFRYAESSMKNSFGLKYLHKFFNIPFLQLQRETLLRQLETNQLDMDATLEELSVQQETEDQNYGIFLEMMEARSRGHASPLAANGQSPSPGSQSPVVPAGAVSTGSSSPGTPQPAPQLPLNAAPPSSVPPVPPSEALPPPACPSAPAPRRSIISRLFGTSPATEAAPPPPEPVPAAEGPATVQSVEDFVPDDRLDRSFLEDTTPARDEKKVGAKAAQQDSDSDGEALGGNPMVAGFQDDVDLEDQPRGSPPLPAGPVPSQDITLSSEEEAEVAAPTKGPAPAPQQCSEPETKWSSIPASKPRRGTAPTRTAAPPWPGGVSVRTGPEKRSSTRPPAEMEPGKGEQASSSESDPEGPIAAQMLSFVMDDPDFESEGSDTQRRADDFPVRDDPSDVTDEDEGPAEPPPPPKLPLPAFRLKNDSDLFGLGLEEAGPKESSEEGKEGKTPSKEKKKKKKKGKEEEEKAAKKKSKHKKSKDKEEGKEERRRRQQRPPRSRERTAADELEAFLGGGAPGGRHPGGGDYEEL
# UniProt Q9BVC5: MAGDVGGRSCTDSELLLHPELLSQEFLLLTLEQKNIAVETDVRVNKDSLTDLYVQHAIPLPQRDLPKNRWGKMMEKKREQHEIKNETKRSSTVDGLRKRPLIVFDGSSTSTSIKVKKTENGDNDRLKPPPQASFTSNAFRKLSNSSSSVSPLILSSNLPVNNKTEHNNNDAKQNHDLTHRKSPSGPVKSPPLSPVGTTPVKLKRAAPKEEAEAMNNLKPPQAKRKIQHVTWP
# UniProt Q9Y312: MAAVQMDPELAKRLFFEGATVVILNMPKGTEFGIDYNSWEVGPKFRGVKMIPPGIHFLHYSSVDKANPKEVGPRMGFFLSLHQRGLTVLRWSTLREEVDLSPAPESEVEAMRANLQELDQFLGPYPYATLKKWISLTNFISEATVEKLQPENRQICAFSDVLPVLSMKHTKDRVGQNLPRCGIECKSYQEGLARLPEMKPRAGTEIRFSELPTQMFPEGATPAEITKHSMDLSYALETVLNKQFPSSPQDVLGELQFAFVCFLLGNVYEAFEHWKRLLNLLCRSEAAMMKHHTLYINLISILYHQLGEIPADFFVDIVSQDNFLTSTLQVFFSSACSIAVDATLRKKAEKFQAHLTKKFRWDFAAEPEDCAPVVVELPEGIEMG
# Compound: COc1ccc(Cn2ccc3cc(C)c(C(=O)NO)cc32)cc1
# Experiment: dose-dependent thermal stabilisation call (2D-TPP, DLPTP, 10% FDR) (binary (1 = stabilised)); higher = stabilised by the compound
# Conditions: system: HL-60 intact cells; concentration range 0.04-10 µM
# Method: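 2D thermal proteome profiling in intact HL-60 cells treated with BRD-3811 (0, 0.04, 0.29, 2, 10 uM) for 90 min at 37 C, then heated 3 min at one of 12 temperatures (42-63.9 C). Soluble protein was quantified by TMT10 MS. The value is the DLPTP call of the paper: dose-dependent thermal stabilisation over all temperatures at 10% FDR (F-test of a dose-response against a flat model); one experiment, one call per tested protein.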
row,Target,dose-dependent thermal stabilisation call
1,CCDC72 (UniProt Q9Y2S6),inactive: 0
2,C1ORF122 (UniProt Q6ZSJ8),inactive: 0
3,C6ORF130 (UniProt Q9Y530),inactive: 0
4,CASP14 (UniProt P31944),inactive: 0
5,CCT4 (UniProt P50991),inactive: 0
6,CCDC88B (UniProt A6NC98),inactive: 0
7,CCT5 (UniProt P48643),inactive: 0
8,C3ORF31 (UniProt Q96BW9),inactive: 0
9,CAT (UniProt P04040),inactive: 0
10,C8ORF33 (UniProt Q9H7E9),inactive: 0
11,C2ORF69 (UniProt Q8N8R5),inactive: 0
12,CCDC115 (UniProt Q96NT0),inactive: 0
13,CARHSP1 (UniProt Q9Y2V2),inactive: 0
14,CCNB2 (UniProt O95067),inactive: 0
15,C1ORF50 (UniProt Q9BV19),inactive: 0
16,C6ORF66 (UniProt Q9P032),inactive: 0
17,C2CD2L (UniProt O14523),inactive: 0
18,CCDC22 (UniProt O60826),inactive: 0
19,C22ORF28 (UniProt Q9Y3I0),inactive: 0
20,CD4 (UniProt P01730),inactive: 0

row,Target,dose-dependent thermal stabilisation call
1,CASP2 (UniProt P42575),inactive: 0
2,C7ORF43 (UniProt Q8WVR3),inactive: 0
3,CASK (UniProt O14936),inactive: 0
4,CCDC21 (UniProt Q6P2H3),inactive: 0
5,CCT6A (UniProt P40227),inactive: 0
6,C1ORF38 (UniProt Q5TEJ8),inactive: 0
7,C9ORF86 (UniProt Q3YEC7),inactive: 0
8,CCDC86 (UniProt Q9H6F5),inactive: 0
9,C2ORF49 (UniProt Q9BVC5),inactive: 0
10,C6ORF136 (UniProt Q5SQH8),inactive: 0
11,C7ORF20 (UniProt Q7L5D6),inactive: 0
12,C21ORF33 (UniProt P0DPI2),inactive: 0
13,CCDC109B (UniProt Q9NWR8),inactive: 0
14,C1ORF103 (UniProt Q5T3J3),inactive: 0
15,C8ORF38 (UniProt Q330K2),inactive: 0
16,C7ORF27 (UniProt Q6PJG6),inactive: 0
17,C20ORF4 (UniProt Q9Y312),inactive: 0
18,CASC3 (UniProt O15234),inactive: 0
19,C5ORF44 (UniProt A5PLN9),inactive: 0
20,CCBL2 (UniProt Q6YP21),inactive: 0

# Some of the entries so far, with bars between the fields.
row | Target | dose-dependent thermal stabilisation call
5 | CCT6A (UniProt P40227) | inactive: 0
19 | C5ORF44 (UniProt A5PLN9) | inactive: 0

# From the supplement of paper PMC7666118
